No constants are given. Whether binding was seen depends on the method and setting. Binding seen in cells or lysates may run through a third protein. Some results given as binding are weak or reduced against the parent protein; the word gives no strength.
Columns and labels:
[1] = target: IGF2BP3 (insulin-like growth factor 2 mRNA binding protein 3) (human (endogenous in U251 and A172)) (UniProt O00425); experiment: co-IP; GBM cells transfected with ov-NC (control vector); lysate in co-IP buffer, magnetic beads with antibodies at 4 °C for 12 h; Western blot
[2] = target: IGF2BP3 (insulin-like growth factor 2 mRNA binding protein 3) (human (endogenous in U251 and A172)) (UniProt O00425); experiment: condition: only in GBM cells overexpressing circNEIL3 (ov-circNEIL3); co-IP; GBM cells transfected with ov-circNEIL3 (circNEIL3 overexpression); lysate in co-IP buffer, magnetic beads with antibodies at 4 °C for 12 h; Western blot

By UniProt entry, the sequences of proteins in these tests, tags left out.
UniProt O00425: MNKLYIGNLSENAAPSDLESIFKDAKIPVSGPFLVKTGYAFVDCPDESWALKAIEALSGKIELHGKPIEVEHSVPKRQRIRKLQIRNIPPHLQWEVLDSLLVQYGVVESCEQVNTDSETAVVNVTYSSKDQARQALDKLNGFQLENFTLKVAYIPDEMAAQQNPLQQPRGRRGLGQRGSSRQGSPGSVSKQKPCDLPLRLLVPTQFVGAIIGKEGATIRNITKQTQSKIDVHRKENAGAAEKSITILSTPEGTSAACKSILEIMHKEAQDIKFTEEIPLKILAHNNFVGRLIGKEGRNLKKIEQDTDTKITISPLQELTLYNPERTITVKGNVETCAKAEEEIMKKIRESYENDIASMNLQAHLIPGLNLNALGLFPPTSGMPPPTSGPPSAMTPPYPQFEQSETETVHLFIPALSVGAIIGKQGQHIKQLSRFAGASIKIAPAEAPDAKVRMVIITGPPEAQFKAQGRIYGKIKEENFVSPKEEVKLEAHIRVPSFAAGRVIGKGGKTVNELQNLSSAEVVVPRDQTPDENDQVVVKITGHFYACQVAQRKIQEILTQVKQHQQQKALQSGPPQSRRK
UniProt Q9Y4D8: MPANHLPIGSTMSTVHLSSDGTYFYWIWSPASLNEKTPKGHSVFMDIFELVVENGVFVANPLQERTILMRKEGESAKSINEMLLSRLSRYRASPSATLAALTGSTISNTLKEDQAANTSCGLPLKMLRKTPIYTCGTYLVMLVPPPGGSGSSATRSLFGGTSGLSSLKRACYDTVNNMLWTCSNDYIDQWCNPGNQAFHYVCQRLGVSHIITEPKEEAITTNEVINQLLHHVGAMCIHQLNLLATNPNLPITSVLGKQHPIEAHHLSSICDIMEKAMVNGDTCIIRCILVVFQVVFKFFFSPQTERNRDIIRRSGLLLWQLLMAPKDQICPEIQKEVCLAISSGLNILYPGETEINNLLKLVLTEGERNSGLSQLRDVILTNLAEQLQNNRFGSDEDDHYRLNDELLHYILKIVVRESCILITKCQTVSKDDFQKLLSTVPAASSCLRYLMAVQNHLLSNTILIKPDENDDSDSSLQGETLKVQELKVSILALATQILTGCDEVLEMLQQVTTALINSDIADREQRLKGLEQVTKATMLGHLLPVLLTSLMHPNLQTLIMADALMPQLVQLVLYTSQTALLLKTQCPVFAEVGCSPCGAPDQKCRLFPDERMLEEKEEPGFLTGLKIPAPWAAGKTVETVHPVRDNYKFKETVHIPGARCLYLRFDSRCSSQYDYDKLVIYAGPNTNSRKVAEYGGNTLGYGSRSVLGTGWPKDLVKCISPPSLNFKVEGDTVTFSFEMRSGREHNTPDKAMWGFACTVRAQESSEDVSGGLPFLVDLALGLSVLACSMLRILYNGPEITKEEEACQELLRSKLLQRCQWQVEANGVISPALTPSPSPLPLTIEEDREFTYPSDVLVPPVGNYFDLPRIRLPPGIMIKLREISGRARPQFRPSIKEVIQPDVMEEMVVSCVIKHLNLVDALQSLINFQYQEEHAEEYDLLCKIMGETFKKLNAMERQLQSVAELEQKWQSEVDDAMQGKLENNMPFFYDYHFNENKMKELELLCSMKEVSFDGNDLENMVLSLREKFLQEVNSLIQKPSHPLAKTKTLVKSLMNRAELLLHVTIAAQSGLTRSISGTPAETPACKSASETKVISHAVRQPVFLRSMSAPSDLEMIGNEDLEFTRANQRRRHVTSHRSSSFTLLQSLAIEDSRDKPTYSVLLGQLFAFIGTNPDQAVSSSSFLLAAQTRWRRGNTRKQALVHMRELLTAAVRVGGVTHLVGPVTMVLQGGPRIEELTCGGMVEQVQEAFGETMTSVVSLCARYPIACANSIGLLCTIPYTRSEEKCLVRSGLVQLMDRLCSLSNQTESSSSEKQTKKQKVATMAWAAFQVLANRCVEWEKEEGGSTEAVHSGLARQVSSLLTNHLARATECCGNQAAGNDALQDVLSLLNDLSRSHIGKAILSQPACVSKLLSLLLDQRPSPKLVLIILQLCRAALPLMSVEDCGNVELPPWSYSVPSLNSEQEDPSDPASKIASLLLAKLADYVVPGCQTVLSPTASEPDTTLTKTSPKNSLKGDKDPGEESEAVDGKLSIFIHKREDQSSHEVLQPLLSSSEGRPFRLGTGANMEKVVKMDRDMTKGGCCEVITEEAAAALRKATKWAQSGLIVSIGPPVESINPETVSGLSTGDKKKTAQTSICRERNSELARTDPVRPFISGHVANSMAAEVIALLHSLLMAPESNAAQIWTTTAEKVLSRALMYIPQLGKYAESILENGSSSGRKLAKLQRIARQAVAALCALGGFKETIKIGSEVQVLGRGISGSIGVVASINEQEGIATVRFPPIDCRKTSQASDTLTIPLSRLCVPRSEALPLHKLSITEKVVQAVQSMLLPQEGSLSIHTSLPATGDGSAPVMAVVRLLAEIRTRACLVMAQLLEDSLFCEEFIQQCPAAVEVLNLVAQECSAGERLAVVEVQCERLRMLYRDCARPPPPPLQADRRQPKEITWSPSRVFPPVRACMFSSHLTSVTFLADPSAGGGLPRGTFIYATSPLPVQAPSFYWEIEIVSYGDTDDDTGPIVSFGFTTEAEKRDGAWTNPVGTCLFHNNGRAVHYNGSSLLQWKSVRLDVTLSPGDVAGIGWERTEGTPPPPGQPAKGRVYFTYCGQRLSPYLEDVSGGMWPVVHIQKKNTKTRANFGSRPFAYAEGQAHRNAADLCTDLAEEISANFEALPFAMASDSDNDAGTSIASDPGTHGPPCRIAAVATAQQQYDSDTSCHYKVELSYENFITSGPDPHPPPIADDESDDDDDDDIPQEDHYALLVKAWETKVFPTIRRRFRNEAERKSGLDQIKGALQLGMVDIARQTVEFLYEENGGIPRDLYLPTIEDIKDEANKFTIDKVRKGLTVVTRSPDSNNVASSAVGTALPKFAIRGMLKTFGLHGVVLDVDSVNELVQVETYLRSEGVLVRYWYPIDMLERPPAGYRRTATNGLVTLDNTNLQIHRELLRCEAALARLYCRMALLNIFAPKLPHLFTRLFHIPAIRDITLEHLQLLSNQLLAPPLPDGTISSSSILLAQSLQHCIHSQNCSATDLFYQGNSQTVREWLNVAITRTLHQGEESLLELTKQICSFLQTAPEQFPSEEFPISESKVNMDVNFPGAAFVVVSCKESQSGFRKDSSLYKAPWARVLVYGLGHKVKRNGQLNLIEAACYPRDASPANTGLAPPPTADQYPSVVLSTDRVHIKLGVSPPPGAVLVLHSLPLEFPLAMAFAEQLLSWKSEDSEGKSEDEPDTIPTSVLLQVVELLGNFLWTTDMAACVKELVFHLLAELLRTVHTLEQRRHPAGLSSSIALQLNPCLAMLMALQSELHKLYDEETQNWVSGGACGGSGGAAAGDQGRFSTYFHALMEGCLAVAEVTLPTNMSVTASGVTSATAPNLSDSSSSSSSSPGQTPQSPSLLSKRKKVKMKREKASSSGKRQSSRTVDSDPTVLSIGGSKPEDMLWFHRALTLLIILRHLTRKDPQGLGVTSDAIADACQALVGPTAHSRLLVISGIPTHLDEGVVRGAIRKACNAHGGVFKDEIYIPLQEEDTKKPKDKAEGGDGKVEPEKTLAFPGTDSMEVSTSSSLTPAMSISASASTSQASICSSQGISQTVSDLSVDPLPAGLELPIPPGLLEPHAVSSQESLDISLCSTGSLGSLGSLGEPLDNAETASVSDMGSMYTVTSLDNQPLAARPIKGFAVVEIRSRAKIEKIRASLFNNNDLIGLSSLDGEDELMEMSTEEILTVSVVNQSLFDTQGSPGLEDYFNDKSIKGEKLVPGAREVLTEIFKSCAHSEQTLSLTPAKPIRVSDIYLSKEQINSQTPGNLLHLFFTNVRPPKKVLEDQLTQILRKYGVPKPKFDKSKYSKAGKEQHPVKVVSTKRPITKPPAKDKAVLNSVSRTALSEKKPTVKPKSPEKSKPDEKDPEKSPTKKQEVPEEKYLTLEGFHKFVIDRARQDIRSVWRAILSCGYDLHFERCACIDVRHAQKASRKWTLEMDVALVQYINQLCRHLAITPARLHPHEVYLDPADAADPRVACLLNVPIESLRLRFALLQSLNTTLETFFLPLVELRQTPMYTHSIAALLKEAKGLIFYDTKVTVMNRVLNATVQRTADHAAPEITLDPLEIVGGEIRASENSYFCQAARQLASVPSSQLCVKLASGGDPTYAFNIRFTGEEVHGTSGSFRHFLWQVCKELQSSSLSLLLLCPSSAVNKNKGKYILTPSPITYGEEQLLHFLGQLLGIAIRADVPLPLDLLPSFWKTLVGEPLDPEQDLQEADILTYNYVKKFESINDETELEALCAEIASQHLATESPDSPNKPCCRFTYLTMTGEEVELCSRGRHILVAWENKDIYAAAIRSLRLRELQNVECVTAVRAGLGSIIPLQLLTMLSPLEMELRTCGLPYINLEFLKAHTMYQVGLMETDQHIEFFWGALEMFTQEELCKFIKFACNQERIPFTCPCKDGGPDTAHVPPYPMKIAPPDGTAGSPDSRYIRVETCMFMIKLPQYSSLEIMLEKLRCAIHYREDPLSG

“HECTD4 (from UniProt Q9Y4D8 1-3996) (enzyme)” was tested, and the binding [1] was “binds” and the binding [2] was “no binding”.
